Assay results taken from ChEMBL document CHEMBL4431325, “Design and Synthesis of Orally Bioavailable 4-Methyl Heteroaryldihydropyrimidine Based Hepatitis B Virus (HBV) Capsid Inhibitors” (J Med Chem, 2016).

Assay: physchem
Settings: octanol/water

SMILES: COC(=O)C1=C(CN2CC(F)(F)C[C@H]2C(=O)O)NC(c2nccs2)=N[C@@]1(C)c1ccc(F)cc1
- logD: 0.25
